Results are given in words; binding and its absence hold for the method and conditions named. For part of these data: Binding seen in cells or lysates may run through a third protein. Some results given as binding are weak or reduced against the parent protein; the word gives no strength.

Protein sequences, listed by entry. Tags and fused reporters are not part of them.
UniProt Q9NRF9: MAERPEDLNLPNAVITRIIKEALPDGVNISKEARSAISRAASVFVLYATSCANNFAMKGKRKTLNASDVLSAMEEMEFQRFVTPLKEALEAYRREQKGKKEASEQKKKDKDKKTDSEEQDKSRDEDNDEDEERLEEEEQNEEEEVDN
UniProt Q07864: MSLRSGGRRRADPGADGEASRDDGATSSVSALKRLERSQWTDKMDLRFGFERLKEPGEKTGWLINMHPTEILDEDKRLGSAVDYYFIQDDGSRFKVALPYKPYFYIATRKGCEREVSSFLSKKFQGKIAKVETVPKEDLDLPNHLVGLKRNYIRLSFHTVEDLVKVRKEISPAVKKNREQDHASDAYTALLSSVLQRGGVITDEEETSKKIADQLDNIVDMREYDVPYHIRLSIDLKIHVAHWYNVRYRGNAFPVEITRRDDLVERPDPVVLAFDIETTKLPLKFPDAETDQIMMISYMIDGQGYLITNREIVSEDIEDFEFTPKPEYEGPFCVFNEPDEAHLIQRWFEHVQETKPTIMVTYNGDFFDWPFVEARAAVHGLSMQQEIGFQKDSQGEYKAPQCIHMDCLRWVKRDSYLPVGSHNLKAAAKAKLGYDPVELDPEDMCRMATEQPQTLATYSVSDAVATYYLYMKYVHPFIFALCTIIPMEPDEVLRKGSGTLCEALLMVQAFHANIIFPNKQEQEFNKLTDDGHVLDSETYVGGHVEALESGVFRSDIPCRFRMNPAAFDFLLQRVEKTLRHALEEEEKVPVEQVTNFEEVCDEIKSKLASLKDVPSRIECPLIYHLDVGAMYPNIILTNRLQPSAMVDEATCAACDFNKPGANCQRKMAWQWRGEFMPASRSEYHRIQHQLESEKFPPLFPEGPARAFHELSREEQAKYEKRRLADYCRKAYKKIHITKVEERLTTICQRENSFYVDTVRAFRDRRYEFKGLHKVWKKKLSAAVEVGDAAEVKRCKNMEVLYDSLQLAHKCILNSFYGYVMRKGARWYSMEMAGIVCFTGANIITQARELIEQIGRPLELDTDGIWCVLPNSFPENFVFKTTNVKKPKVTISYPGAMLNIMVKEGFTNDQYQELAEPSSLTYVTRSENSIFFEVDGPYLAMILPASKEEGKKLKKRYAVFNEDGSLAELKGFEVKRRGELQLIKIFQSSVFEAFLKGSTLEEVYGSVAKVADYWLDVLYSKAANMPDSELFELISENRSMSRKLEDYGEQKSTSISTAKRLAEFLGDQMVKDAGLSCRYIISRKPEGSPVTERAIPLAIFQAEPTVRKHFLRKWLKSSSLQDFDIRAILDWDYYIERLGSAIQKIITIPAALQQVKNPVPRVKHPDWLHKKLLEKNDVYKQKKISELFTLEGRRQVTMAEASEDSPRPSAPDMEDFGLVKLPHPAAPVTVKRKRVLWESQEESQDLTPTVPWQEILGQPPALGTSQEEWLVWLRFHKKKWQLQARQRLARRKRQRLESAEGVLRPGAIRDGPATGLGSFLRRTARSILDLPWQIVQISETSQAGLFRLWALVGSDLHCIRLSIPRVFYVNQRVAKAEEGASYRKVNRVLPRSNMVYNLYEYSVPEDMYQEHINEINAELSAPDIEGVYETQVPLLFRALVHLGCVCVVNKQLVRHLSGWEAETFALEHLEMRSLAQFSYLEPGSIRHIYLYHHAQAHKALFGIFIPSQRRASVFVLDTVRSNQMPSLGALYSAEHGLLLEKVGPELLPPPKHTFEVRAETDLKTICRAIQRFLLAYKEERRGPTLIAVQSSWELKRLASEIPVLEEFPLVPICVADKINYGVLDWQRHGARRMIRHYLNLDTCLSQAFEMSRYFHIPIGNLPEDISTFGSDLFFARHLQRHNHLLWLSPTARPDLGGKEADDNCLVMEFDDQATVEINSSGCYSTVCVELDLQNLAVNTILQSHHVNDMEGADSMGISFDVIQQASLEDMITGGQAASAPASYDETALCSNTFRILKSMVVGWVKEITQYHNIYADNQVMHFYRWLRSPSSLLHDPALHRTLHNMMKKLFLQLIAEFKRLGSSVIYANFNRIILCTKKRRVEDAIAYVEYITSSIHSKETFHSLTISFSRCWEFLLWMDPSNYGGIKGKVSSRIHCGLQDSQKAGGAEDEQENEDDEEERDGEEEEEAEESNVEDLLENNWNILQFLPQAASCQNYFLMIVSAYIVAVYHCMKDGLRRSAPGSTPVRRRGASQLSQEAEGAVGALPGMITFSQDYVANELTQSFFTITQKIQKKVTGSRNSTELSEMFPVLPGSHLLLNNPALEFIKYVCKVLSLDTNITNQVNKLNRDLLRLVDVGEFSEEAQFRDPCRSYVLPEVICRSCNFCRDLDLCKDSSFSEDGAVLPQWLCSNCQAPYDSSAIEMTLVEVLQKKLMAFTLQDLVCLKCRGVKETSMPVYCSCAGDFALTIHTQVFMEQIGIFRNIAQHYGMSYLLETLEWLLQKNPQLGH
UniProt Q9UNS1: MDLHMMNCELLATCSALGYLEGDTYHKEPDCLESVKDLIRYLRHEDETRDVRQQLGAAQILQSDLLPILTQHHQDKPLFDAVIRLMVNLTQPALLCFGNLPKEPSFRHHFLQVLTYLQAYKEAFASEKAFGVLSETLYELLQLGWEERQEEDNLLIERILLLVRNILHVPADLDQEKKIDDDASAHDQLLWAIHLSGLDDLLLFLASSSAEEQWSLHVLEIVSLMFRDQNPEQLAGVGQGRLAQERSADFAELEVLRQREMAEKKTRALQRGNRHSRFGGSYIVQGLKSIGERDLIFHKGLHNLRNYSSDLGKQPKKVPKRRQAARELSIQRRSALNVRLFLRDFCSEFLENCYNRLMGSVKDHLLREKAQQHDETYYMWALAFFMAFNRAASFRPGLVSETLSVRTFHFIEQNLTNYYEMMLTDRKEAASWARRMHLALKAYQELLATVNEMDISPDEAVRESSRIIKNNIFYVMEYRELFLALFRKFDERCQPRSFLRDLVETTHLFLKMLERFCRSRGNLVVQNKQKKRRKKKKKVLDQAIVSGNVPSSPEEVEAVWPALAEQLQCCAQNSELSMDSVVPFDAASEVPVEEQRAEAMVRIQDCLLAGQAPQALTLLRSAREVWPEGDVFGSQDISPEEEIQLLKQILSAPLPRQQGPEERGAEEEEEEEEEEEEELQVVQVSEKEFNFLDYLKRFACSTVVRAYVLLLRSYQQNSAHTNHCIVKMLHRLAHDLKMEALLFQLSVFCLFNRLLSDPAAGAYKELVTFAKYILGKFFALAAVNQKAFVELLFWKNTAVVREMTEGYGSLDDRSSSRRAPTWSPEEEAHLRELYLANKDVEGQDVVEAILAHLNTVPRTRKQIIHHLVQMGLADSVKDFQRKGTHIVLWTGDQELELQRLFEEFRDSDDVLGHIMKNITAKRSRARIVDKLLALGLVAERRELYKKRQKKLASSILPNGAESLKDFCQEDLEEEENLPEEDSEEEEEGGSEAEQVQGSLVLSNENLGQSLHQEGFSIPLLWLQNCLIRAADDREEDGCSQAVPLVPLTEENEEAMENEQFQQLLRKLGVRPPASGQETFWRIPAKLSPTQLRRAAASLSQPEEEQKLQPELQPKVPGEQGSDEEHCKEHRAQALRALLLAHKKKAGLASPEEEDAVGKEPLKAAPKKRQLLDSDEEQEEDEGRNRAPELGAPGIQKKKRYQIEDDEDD
UniProt Q9BRT9: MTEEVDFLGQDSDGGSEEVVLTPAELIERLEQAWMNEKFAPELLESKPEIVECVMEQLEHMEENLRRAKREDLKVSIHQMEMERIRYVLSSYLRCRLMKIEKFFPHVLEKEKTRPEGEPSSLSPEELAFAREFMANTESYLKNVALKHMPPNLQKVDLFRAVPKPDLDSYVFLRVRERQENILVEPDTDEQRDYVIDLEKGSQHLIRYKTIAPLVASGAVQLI
UniProt P49736: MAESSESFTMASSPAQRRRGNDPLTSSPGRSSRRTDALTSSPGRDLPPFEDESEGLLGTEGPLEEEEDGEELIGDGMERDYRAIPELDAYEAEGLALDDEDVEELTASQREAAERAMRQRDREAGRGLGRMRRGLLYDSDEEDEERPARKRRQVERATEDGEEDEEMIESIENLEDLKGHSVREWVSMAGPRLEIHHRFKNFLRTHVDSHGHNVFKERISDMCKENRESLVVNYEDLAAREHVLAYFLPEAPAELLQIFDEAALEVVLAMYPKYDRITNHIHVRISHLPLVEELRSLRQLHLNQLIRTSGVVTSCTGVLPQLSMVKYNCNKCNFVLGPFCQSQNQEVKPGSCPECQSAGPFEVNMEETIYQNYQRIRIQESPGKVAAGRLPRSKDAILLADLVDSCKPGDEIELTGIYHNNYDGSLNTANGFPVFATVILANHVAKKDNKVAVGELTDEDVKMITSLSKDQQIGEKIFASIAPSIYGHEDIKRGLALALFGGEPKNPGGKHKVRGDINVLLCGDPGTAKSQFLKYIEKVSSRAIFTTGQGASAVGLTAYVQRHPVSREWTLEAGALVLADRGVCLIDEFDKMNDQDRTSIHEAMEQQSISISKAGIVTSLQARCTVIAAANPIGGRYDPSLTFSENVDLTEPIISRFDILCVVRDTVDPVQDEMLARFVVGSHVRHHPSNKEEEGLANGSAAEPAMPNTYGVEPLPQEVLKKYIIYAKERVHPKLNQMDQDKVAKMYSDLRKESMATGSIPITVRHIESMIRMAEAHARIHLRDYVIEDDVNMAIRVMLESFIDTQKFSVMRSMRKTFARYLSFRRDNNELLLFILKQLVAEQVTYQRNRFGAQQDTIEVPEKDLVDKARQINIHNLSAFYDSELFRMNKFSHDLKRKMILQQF

B1: POLE2 (protein, UniProt P56282 1-527)
chain: MAPERLRSRALSAFKLRGLLLRGEAIKYLTEALQSISELELEDKLEKIINAVEKQPLSSNMIERSVVEAAVQECSQSVDETIEHVFNIIGAFDIPRFVYNSERKKFLPLLMTNHPAPNLFGTPRDKAEMFRERYTILHQRTHRHELFTPPVIGSHPDESGSKFQLKTIETLLGSTTKIGDAIVLGMITQLKEGKFFLEDPTGTVQLDLSKAQFHSGLYTEACFVLAEGWFEDQVFHVNAFGFPPTEPSSTTRAYYGNINFFGGPSNTSVKTSAKLKQLEEENKDAMFVFLSDVWLDQVEVLEKLRIMFAGYSPAPPTCFILCGNFSSAPYGKNQVQALKDSLKTLADIICEYPDIHQSSRFVFVPGPEDPGFGSILPRPPLAESITNEFRQRVPFSVFTTNPCRIQYCTQEITVFREDLVNKMCRNCVRFPSSNLAIPNHFVKTILSQGHLTPLPLYVCPVYWAYDYALRVYPVPDLLVIADKYDPFTTTNTECLCINPGSFPRSGFSFKVFYPSNKTVEDSKLQGF
B2: POLE4 (protein, UniProt Q9NR33 1-117)
chain: MAAAAAAGSGTPREEEGPAGEAAASQPQAPTSVPGARLSRLPLARVKALVKADPDVTLAGQEAIFILARAAELFVETIAKDAYCCAQQGKRKTLQRRDLDNAIEAVDEFAFLEGTLD
B3: TIPIN (protein, UniProt Q9BVW5 1-301)
chain: MLEPQENGVIDLPDYEHVEDETFPPFPPPASPERQDGEGTEPDEESGNGAPVRVPPKRTVKRNIPKLDAQRLISERGLPALRHVFDKAKFKGKGHEAEDLKMLIRHMEHWAHRLFPKLQFEDFIDRVEYLGSKKEVQTCLKRIRLDLPILHEDFVSNNDEVAENNEHDVTSTELDPFLTNLSESEMFASELSRSLTEEQQQRIERNKQLALERRQAKLLSNSQTLGNDMLMNTPRAHTVEEVNTDEDQKEESNGLNEDILDNPCNDAIANTLNEEETLLDQSFKNVQQQLDATSRNITEAR
B4: CDC45 (protein, UniProt O75419 1-566)
chain: MFVSDFRKEFYEVVQSQRVLLFVASDVDALCACKILQALFQCDHVQYTLVPVSGWQELETAFLEHKEQFHYFILINCGANVDLLDILQPDEDTIFFVCDTHRPVNVVNVYNDTQIKLLIKQDDDLEVPAYEDIFRDEEEDEEHSGNDSDGSEPSEKRTRLEEEIVEQTMRRRQRREWEARRRDILFDYEQYEYHGTSSAMVMFELAWMLSKDLNDMLWWAIVGLTDQWVQDKITQMKYVTDVGVLQRHVSRHNHRNEDEENTLSVDCTRISFEYDLRLVLYQHWSLHDSLCNTSYTAARFKLWSVHGQKRLQEFLADMGLPLKQVKQKFQAMDISLKENLREMIEESANKFGMKDMRVQTFSIHFGFKHKFLASDVVFATMSLMESPEKDGSGTDHFIQALDSLSRSNLDKLYHGLELAKKQLRATQQTIASCLCTNLVISQGPFLYCSLMEGTPDVMLFSRPASLSLLSKHLLKSFVCSTKNRRCKLLPLVMAAPLSMEHGTVTVVGIPPETDSSDRKNFFGRAFEKAAESTSSRMLHNHFDLSVIELKAEDRSKFLDALISLLS
B5: MCM3 (protein, UniProt P25205 1-808)
chain: MAGTVVLDDVELREAQRDYLDFLDDEEDQGIYQSKVRELISDNQYRLIVNVNDLRRKNEKRANRLLNNAFEELVAFQRALKDFVASIDATYAKQYEEFYVGLEGSFGSKHVSPRTLTSCFLSCVVCVEGIVTKCSLVRPKVVRSVHYCPATKKTIERRYSDLTTLVAFPSSSVYPTKDEENNPLETEYGLSVYKDHQTITIQEMPEKAPAGQLPRSVDVILDDDLVDKAKPGDRVQVVGTYRCLPGKKGGYTSGTFRTVLIACNVKQMSKDAQPSFSAEDIAKIKKFSKTRSKDIFDQLAKSLAPSIHGHDYVKKAILCLLLGGVERDLENGSHIRGDINILLIGDPSVAKSQLLRYVLCTAPRAIPTTGRGSSGVGLTAAVTTDQETGERRLEAGAMVLADRGVVCIDEFDKMSDMDRTAIHEVMEQGRVTIAKAGIHARLNARCSVLAAANPVYGRYDQYKTPMENIGLQDSLLSRFDLLFIMLDQMDPEQDREISDHVLRMHRYRAPGEQDGDAMPLGSAVDILATDDPNFSQEDQQDTQIYEKHDNLLHGTKKKKEKMVSAAFMKKYIHVAKIIKPVLTQESATYIAEEYSRLRSQDSMSSDTARTSPVTARTLETLIRLATAHAKARMSKTVDLQDAEEAVELVQYAYFKKVLEKEKKRKKRSEDESETEDEEEKSQEDQEQKRKRRKTRQPDAKDGDSYDPYDFSDTEEEMPQVHTPKTADSQETKESQKVELSESRLKAFKVALLDVFREAHAQSIGMNRLTESINRDSEEPFSSVEIQAALSKMQDDNQVMVSEGIIFLI
B6: MCM5 (protein, UniProt P33992 1-734)
chain: MSGFDDPGIFYSDSFGGDAQADEGQARKSQLQRRFKEFLRQYRVGTDRTGFTFKYRDELKRHYNLGEYWIEVEMEDLASFDEDLADYLYKQPAEHLQLLEEAAKEVADEVTRPRPSGEEVLQDIQVMLKSDASPSSIRSLKSDMMSHLVKIPGIIIAASAVRAKATRISIQCRSCRNTLTNIAMRPGLEGYALPRKCNTDQAGRPKCPLDPYFIMPDKCKCVDFQTLKLQELPDAVPHGEMPRHMQLYCDRYLCDKVVPGNRVTIMGIYSIKKFGLTTSRGRDRVGVGIRSSYIRVLGIQVDTDGSGRSFAGAVSPQEEEEFRRLAALPNVYEVISKSIAPSIFGGTDMKKAIACLLFGGSRKRLPDGLTRRGDINLLMLGDPGTAKSQLLKFVEKCSPIGVYTSGKGSSAAGLTASVMRDPSSRNFIMEGGAMVLADGGVVCIDEFDKMREDDRVAIHEAMEQQTISIAKAGITTTLNSRCSVLAAANSVFGRWDETKGEDNIDFMPTILSRFDMIFIVKDEHNEERDVMLAKHVITLHVSALTQTQAVEGEIDLAKLKKFIAYCRVKCGPRLSAEAAEKLKNRYIIMRSGARQHERDSDRRSSIPITVRQLEAIVRIAEALSKMKLQPFATEADVEEALRLFQVSTLDAALSGTLSGVEGFTSQEDQEMLSRIEKQLKRRFAIGSQVSEHSIIKDFTKQKYPEHAIHKVLQLMLRRGEIQHRMQRKVLYRLK
B7: MCM6 (protein, UniProt Q14566 1-821)
chain: MDLAAAAEPGAGSQHLEVRDEVAEKCQKLFLDFLEEFQSSDGEIKYLQLAEELIRPERNTLVVSFVDLEQFNQQLSTTIQEEFYRVYPYLCRALKTFVKDRKEIPLAKDFYVAFQDLPTRHKIRELTSSRIGLLTRISGQVVRTHPVHPELVSGTFLCLDCQTVIRDVEQQFKYTQPNICRNPVCANRRRFLLDTNKSRFVDFQKVRIQETQAELPRGSIPRSLEVILRAEAVESAQAGDKCDFTGTLIVVPDVSKLSTPGARAETNSRVSGVDGYETEGIRGLRALGVRDLSYRLVFLACCVAPTNPRFGGKELRDEEQTAESIKNQMTVKEWEKVFEMSQDKNLYHNLCTSLFPTIHGNDEVKRGVLLMLFGGVPKTTGEGTSLRGDINVCIVGDPSTAKSQFLKHVEEFSPRAVYTSGKASSAAGLTAAVVRDEESHEFVIEAGALMLADNGVCCIDEFDKMDVRDQVAIHEAMEQQTISITKAGVKATLNARTSILAAANPISGHYDRSKSLKQNINLSAPIMSRFDLFFILVDECNEVTDYAIARRIVDLHSRIEESIDRVYSLDDIRRYLLFARQFKPKISKESEDFIVEQYKHLRQRDGSGVTKSSWRITVRQLESMIRLSEAMARMHCCDEVQPKHVKEAFRLLNKSIIRVETPDVNLDQEEEIQMEVDEGAGGINGHADSPAPVNGINGYNEDINQESAPKASLRLGFSEYCRISNLIVLHLRKVEEEEDESALKRSELVNWYLKEIESEIDSEEELINKKRIIEKVIHRLTHYDHVLIELTQAGLKGSTEGSESYEEDPYLVVNPNYLLED

The first test deals with Streptag-Tev-POLE3 (human) (UniProt Q9NRF9). Briefly: co-purification (Strep-Tactin affinity, then SEC); DNA polymerase epsilon: subunits co-expressed in Sf21 cells; lysate on Strep-Tactin Superflow beads by Streptag-Tev-POLE3, 500 mM KOAc, elution with desthiobiotin, Superdex 200.
Turning to POLE1 (from UniProt Q07864 1-2286), the binding result is “binds”.

Regarding B1, the binding entry is listed as “binds”.

With B2, the binding result was “binds”.

For a further test, the target named is Streptag-Tev-TIMELESS (human) (UniProt Q9UNS1). Put plainly: co-purification (Strep-Tactin affinity, then SEC); TIMELESS-TIPIN: co-expressed in Sf21 cells; lysate on Strep-Tactin Superflow beads by Streptag-Tev-TIMELESS, 150 mM NaCl, elution with desthiobiotin, tag cleaved with Tev protease, Superdex 200.
As for B3, the binding entry is “binds”.

In a further test the target is GFP-SLD5 (human (endogenous in RPE1)) (UniProt Q9BRT9). Put plainly: co-IP; GFP-Trap agarose beads, 2 h at 4°C, extracts of homozygous GFP-SLD5 RPE1 cells digested with Pierce Universal Nuclease; 100 mM HEPES-KOH pH 7.9, 100 mM potassium acetate, 10 mM magnesium acetate; immunoblotting; cells treated as indicated with 5 µM CB-5083 (4 h) and 5 µM MLN4924 (6 h). In general terms: A western blot detects proteins with antibodies after separation by electrophoresis.
In the case of MCM2 (from UniProt P49736 1-904), the binding result was “binds”.

As to B4, the binding entry is recorded as “binds”.

Regarding B5, the binding entry is on record as “binds”.

For B6, the binding entry was “binds”.

For the molecule B7, the binding result is given as “binds”.

The values above are taken from PMC8331092.
